Measured values taken from paper PMC10791743, “Selective CK1α degraders exert antiproliferative activity against a broad range of human cancer cell lines” (Nature Communications, 2024).

Assay: Bioinformatic analysis of Oncolines IC50 values (genomics, gene expression, dependency, reference agents)
Parameters: species or system human

O=C1CCC(N2Cc3cc(Nc4noc5ccccc45)ccc3C2=O)C(=O)N1 (stereo not drawn) [SJ3149]
10log IC50 ratio, TP53 missense position vs other positions (K132): -3.41 | 10log IC50 ratio, TP53 missense position vs other positions (P309): 0.63 | 10log IC50 ratio, TP53 missense position vs other positions (R175): -0.58 | 10log IC50 ratio, TP53 missense position vs other positions (R248): 0.40 | 10log IC50 ratio, TP53 missense position vs other positions (R273): 0.71 | 10log IC50 ratio, TP53 missense position vs other positions (R280): 0.60 | 10log IC50 ratio altered/wild-type (gene ABL-driven): -1.62 | 10log IC50 ratio altered/wild-type (gene APC): 0.40 | 10log IC50 ratio altered/wild-type (gene ARID1A): 0.14 | 10log IC50 ratio altered/wild-type (gene ATM): -0.71 | 10log IC50 ratio altered/wild-type (gene BRAF): 0.28 | 10log IC50 ratio altered/wild-type (gene BRCA2): -0.50 | 10log IC50 ratio altered/wild-type (gene CCND1): 1.06 | 10log IC50 ratio altered/wild-type (gene CCNE1): 0.0542 | 10log IC50 ratio altered/wild-type (gene CDKN2A): 0.00723 | 10log IC50 ratio altered/wild-type (gene CHD4): 0.09 | 10log IC50 ratio altered/wild-type (gene CREBBP): 0.29 | 10log IC50 ratio altered/wild-type (gene CTNNB1): -1.05 | 10log IC50 ratio altered/wild-type (gene EGFR): -1.22 | 10log IC50 ratio altered/wild-type (gene EP300): 0.09 | 10log IC50 ratio altered/wild-type (gene ERBB2): 1.04 | 10log IC50 ratio altered/wild-type (gene FAT1): 0.68 | 10log IC50 ratio altered/wild-type (gene FBXW7): -0.10 | 10log IC50 ratio altered/wild-type (gene KRAS): 0.31 | 10log IC50 ratio altered/wild-type (gene LRP1B): 1.11 | 10log IC50 ratio altered/wild-type (gene MYC): 1.14 | 10log IC50 ratio altered/wild-type (gene NCOR1): 0.55 | 10log IC50 ratio altered/wild-type (gene NF1): 0.16 | 10log IC50 ratio altered/wild-type (gene NOTCH1): -0.22 | 10log IC50 ratio altered/wild-type (gene NRAS): -0.14 | 10log IC50 ratio altered/wild-type (gene NSD1): 0.67 | 10log IC50 ratio altered/wild-type (gene PBRM1): -0.32 | 10log IC50 ratio altered/wild-type (gene PIK3CA): 0.37 | 10log IC50 ratio altered/wild-type (gene PIK3R1): 0.0148 | 10log IC50 ratio altered/wild-type (gene PTEN): 0.28 | 10log IC50 ratio altered/wild-type (gene RB1): -0.69 | 10log IC50 ratio altered/wild-type (gene SETD2): -0.58 | 10log IC50 ratio altered/wild-type (gene SMAD4): 0.90 | 10log IC50 ratio altered/wild-type (gene SMARCA4): -0.67 | 10log IC50 ratio altered/wild-type (gene SPEN): -1.70 | 10log IC50 ratio altered/wild-type (gene STK11): 0.35 | 10log IC50 ratio altered/wild-type (gene TP53): 1.33 | 10log IC50 ratio altered/wild-type (gene XIRP2): 0.69 | 10log IC50 ratio altered/wild-type (gene ZFHX3): -0.56 | Average IC50 in TP53-altered vs TP53 wild-type cell lines (higher in TP53-altered): 21 fold
